In PubChem BioAssay AID504648 (National Center for Advancing Translational Sciences (NCATS), 2011):
Among all 390,000 compounds or so, about 610 (0.16%) were called active. Inconclusive means that the source gave no clear call. Such entries were picked first, then a sample of the others. Calls follow the shape of the dose curve; as a rule, active = well fitted inhibition curve with a large enough effect; inconclusive = small, poorly fitted or top-dose-only effect, or effect the other way, or another doubt; inactive = no such curve, though single readings can be large or run the other way. A potency beside an inconclusive call is a rough fit, not a confirmed value.

Test: Nrf2 qHTS screen for inhibitors: counterscreen for cytotoxicity
Conditions: A549 ARE-Fluc cells, CellTiter-Fluor viability, 18-24 h; series mostly up to 46 µM
Summary of the method: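 A549 ARE_Fluc cells in 5% FBS OPTI-MEM were exposed to compounds in concentration-response for 18-24 h at 37 deg C. Viability was read by CellTiter-Fluor fluorescence (Ex 405/Em 525) after 30 min, before the luciferase read.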
Potency is read from the fitted curve at half-maximal effect.

SMILES | Potency
O=C(NN=Cc1c(O)ccc2ccccc12)c1ccncc1 | inconclusive: 20.6 µM [falling, single point]
NC(=O)CCn1c(C(=O)c2cc(Cl)c(N)c(Cl)c2)c2ccccc2[n+]1[O-] | inconclusive: 11.6 µM [falling, partial curve]
CCOc1ccccc1NC(=O)CSC1=NN2CCCC(=O)N=C2S1 | inconclusive: 1.64 µM [falling, partial curve, poor fit]
CC(=O)c1ccc(Nc2cc(C)nc3c(C)cccc23)cc1 | inconclusive: 23.1 µM [falling, partial curve]
CC[C@]12c3[nH]c4cc(-c5ccco5)ccc4c3CCN1C(=O)[C@@H](CC(=O)NC/C=C(\C)CCC=C(C)C)C[C@@H]2C(=O)N1CCN(C(=O)C2CC2)CC1 | inconclusive: 32.6 µM [falling, single point]
CCN(CC)c1ccc2nc3ccccc3[n+](CC)c2c1 | active: 8.2 µM
CCOC(=O)C1=C(C)N=c2s/c(=C/c3cccc([N+](=O)[O-])c3O)c(=O)n2C1c1ccccc1 (stereo unspecified) | inconclusive: 20.6 µM [falling, partial curve]
CCCCC1(O)CC(C(F)(F)F)=NN1C(=O)COc1ccccc1 (stereo unspecified) | inconclusive: 29.1 µM [falling, single point]
COCCCNc1nc(NCc2ccccc2OC)c2cnn(C)c2n1 | inactive
Cc1ccc(C(=O)Nc2ccc(NC(=O)c3cccs3)cc2)cc1[N+](=O)[O-] | inactive
Cc1c(OCC(=O)N2C[C@H]3C[C@@H](C2)c2cccc(=O)n2C3)ccc2c3c(c(=O)oc12)CCC3 | inconclusive: 5.8 µM [activator, partial curve, poor fit]
Cc1nnc(N/N=C/c2cc([N+](=O)[O-])c(N3CCC(C)CC3)cc2N2CCC(C)CC2)n1N | inconclusive: 29.1 µM [falling, single point]
COc1ccc(OCC(O)CN(C2CCCCC2)C2CCCCC2)cc1 (stereo unspecified) | inconclusive: 14.6 µM [falling, partial curve, poor fit]
COCC(C)NC(=O)C1CC(=O)N(c2ccc(C)cc2)C1 (stereo unspecified) | inconclusive: 1.64 µM [falling, partial curve, poor fit]
COCCCC1CCN(C(=O)C2CCC(=O)N(C3CCCC3)C2)CC1 (stereo unspecified) | inconclusive: 32.6 µM [activator, partial curve, poor fit]
O=c1cc(-c2ccccc2)[nH]n1-c1nc2ccccc2[nH]1 | inconclusive: 28.2 µM [falling, single point]
C#CCOCCOCCOCCNc1nc(N2CCN(C(=O)CCCCCCCCCCNC(=O)Cn3cc(CCCCCN)nn3)CC2)nc(N2CCN(C(=O)CCCCCCCCCCNC(=O)[C@H]([C@@H](C)CC)n3cc(CCCCCN)nn3)CC2)n1 | inconclusive: 32.6 µM [falling, single point]
CC(=O)c1ccccc1S(=O)(=O)N1CCN(c2nc(-c3cccs3)nc3ccccc23)CC1 | inactive
CCOC(=O)CN1C(=O)COc2ccc(C(C)(C)C)cc21 | inconclusive: 32.6 µM [activator, partial curve, poor fit]
Cc1ccc(Nc2nc3nonc3nc2Nc2cccc(C(F)(F)F)c2)cc1Cl | active: 7.31 µM
CC(OC(=O)c1ccccc1Oc1ccccc1)C(=O)NC1CC1 (stereo unspecified) | inconclusive: 29.1 µM [falling, single point]

SMILES | Potency
COc1cccc(CNC(=O)C2CCC(CNS(=O)(=O)c3ccc4c(c3)CCCC(=O)N4)CC2)c1 (stereo unspecified) | inconclusive: 13 µM [activator, partial curve, poor fit]
CC(C)=CCC/C(C)=C/CNC(=O)C[C@H]1C[C@H](C(=O)N2CCCCC2)[C@@]2(C)c3[nH]c4cc(-c5ccco5)ccc4c3CCN2C1=O | inconclusive: 23.1 µM [falling, single point]
COc1ccc(N2CCN(S(=O)(=O)c3ccc(F)c(C(=O)Nc4ccccc4Cl)c3)CC2)cc1 | inconclusive: 20.6 µM [falling, partial curve, poor fit]
CC1=C(C(=O)OC2CCCCC2)C(c2ccc(N(C)C)cc2)NC(=O)N1 (stereo unspecified) | inactive
Cc1cccc(C)c1NC(=O)CN(C)C(=O)c1ccccc1OCc1ccc(F)cc1 | inconclusive: 16.4 µM [falling, partial curve, poor fit]
Cc1ccc(NNC(N)=S)cc1Cl | inactive
Cc1cc(C(=O)CSc2nc3ccccc3o2)c(C)n1C1CC1 | inconclusive: 23.1 µM [falling, partial curve, poor fit]
CCOC(=O)c1sc(=S)n(-c2ccccc2Cl)c1SC | inconclusive: 32.6 µM [falling, single point]
COc1cc(/C=C(\C#N)c2nc3ccc(C)cc3[nH]2)ccc1OCc1ccc(C)cc1 | inconclusive: 32.6 µM [activator, partial curve, poor fit]
COc1cc(-c2nn3c(-c4cc(-c5ccccc5)n[nH]4)nnc3s2)cc(OC)c1OC | inconclusive: 20.6 µM [falling, single point]
COc1ccc(C(=O)Nc2ccccc2-c2nc3ccccc3s2)cc1OC | inconclusive: 14.6 µM [activator, partial curve, poor fit]
CC(/C=N/NC(=O)c1cc(-c2ccc(Cl)cc2)nc2ccccc12)=C\c1ccco1 | inconclusive: 4.61 µM [falling, partial curve]
CCN(C(=O)c1cn(-c2cccc(OC)c2)c(=O)c2ccccc12)c1ccccc1C | inactive
O=C(Nn1cnnc1)c1ccc([N+](=O)[O-])cc1Cl | inconclusive: 18.4 µM [activator, partial curve, poor fit]
CC(=O)Nc1ccc(NC(=O)c2nc(S(=O)(=O)Cc3ccc(F)cc3)ncc2Cl)cc1 | inconclusive: 32.6 µM [falling, single point]
C[C@H](NC(=O)c1nc[nH]c1C(=O)N[C@@H](Cc1ccccc1)C(=O)OC(C)(C)C)c1ccccc1 | inconclusive: 29.1 µM [falling, single point]
O=C(Nc1ccc(Oc2ccccc2)cc1)C1CCN(c2c3c(nc4ncnn24)CCC3)CC1 | inconclusive: 23.1 µM [falling, single point]
C=CCN1CCN(C(c2cccc(OC)c2OC)c2nnnn2CCC(C)C)CC1 (stereo unspecified) | inconclusive: 20.6 µM [falling, partial curve, poor fit]
Cc1ccc(CNC(=O)COC(=O)C2CC2)cc1 | inactive
COc1ccc(NS(=O)(=O)c2ccc(N3CCCCS3(=O)=O)cc2)cc1Cl | inactive
COc1ccc(CS(=O)/C(Cl)=C(/Cl)C(=O)Nc2ccc(OC)nc2)cc1 (stereo unspecified) | inconclusive: 18.4 µM [falling, single point]

SMILES | Potency
COc1ccc(NC(=S)NC(=O)c2ccc(Br)o2)cc1 | inactive
COc1cc(/C=C2\SC(=S)N(NC(=O)c3cccc(O)c3)C2=O)ccc1O | inconclusive: 16.4 µM [falling, partial curve, poor fit]
CC(C)c1ccccc1OCC(=O)Nc1cc(S(=O)(=O)N2CCOCC2)ccc1N1CCCC1 | inconclusive: 29.1 µM [falling, single point]
CC(C)CC(COCc1ccc(F)cc1)N1CCN(C(=O)c2cccc(C(F)(F)F)c2)CCC1=O (stereo unspecified) | inconclusive: 16.4 µM [falling, partial curve, poor fit]
CSc1nc2nc3c(cc2c(=O)n1-c1ccccc1C)CCCC3 | inconclusive: 7.31 µM [falling, partial curve, poor fit]
Cc1nn(C2CCS(=O)(=O)C2)c(Cl)c1/C=C/C(=O)OCC(=O)N(C)C (stereo unspecified) | inconclusive: 18.4 µM [activator, single point]
CCN(CC)S(=O)(=O)c1cc([N+](=O)[O-])ccc1NNC(=O)Nc1ccc(F)cc1 | inconclusive: 29.1 µM [falling, single point]
Cc1ccc(C)c(NS(=O)(=O)c2cc3c4c(c2)CC(=O)N4CCC3)c1 | inconclusive: 2.91 µM [activator, single point]
Cc1ccc(SCCNC(=O)c2ccc(C)c(S(=O)(=O)Nc3ccccc3C)c2)cc1 | inactive
CC1(C)Oc2ccc3ccc(=O)oc3c2C(/C=N/O)C1=O (stereo unspecified) | inconclusive: 6.51 µM [activator, single point]
Cc1ccc(-n2c(SCc3ccccc3F)nc3[nH]ncc3c2=O)cc1Cl | inconclusive: 29.1 µM [falling, partial curve, poor fit]
CCCCOc1ccc(C2c3c(oc4ccc(C)cc4c3=O)C(=O)N2CCCN(C)C)cc1OCC (stereo unspecified) | inactive
COc1ccccc1/C=C/C(=O)c1c2c(c(C)[nH]c1=O)CCCC2 | inconclusive: 20.6 µM [falling, partial curve, poor fit]
O=C(O)c1ccc(NC(=S)NC(=O)c2ccc(-c3ccc(Br)cc3)o2)cc1 | inactive
Cc1ccc2c(c1)N(C(=O)CSc1nncn1C)C(C)(C)c1ssc(=S)c1-2 | inconclusive: 20.6 µM [falling, partial curve, poor fit]
COc1ccc(C(=O)NN(C)c2nc(C(F)(F)F)nc3ccccc23)cc1 | inconclusive: 2.31 µM [falling, partial curve, poor fit]
O=[N+]([O-])c1ccc(/C=N/Nc2nc(N3CCCCC3)nc(N3CCCCC3)n2)cc1 | inactive
CCCCN(CCCNC(=O)c1cc(Nc2cccc(SC)c2)nc2ccccc12)Cc1ccccc1 | inconclusive: 29.1 µM [falling, single point]
Cc1cccc(CSc2nnc(-c3cccs3)n2Cc2ccco2)c1 | inconclusive: 23.1 µM [falling, partial curve, poor fit]

Retrieved by structure from the list above:
SMILES | Potency
Cc1ccc(SCCNC(=O)c2ccc(C)c(S(=O)(=O)Nc3ccccc3C)c2)cc1 | inactive
CSc1nc2nc3c(cc2c(=O)n1-c1ccccc1C)CCCC3 | inconclusive: 7.31 µM [falling, partial curve, poor fit]
